Measurements reported in PubChem BioAssay AID652243 (Drosophila RNAi Screening Center, 2013).

Aim: 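Fly regulators of androgen-dependent reporter output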 (primary screen)
System: Drosophila S2R+ cells
Reagent: long dsRNA against Drosophila genes
Time to read-out: 72 h (48 h, then 24 h hormone)
Conditions: synthetic androgen R1881 at 10 nM for 24 h
Measured: 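Per-well raw luminescence of the androgen-driven firefly reporter and of the Renilla control, two replicates each, without normalisation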
Reading the numbers: firefly reporter light: higher = more light from androgen-responsive reporter; Renilla control light: higher = more constitutive control signal (cell number, transfection)
Call rule: 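Across duplicate plates, a knock-down whose log firefly/Renilla ratio shifted a set fold down or up from the GFP/LacZ control mean was a hit; the downward cut appears as both 1.5 and 3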
Calls: active = hit: reporter lowered or raised; inactive = no hit
In all, the deposit lists about 24,000 reagents; this is a random part of those that have a named target and a result. Of all reagents, 246 (1%) are marked active. 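Plates not normalised; calls are printed but the firefly/Renilla ratio behind them is not deposited; fold cut for lowering reported inconsistently.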 Raw values vary from plate to plate and are shown uncorrected. Reagents against one gene are numbered here. A plus sign joins genes that one reagent is predicted to hit. Reagent sequences are not shown. The record does not give: the amount of reagent.

| Gene | reagent no. | firefly reporter light, replicate 1 | firefly reporter light, replicate 2 | Renilla control light, replicate 1 | Renilla control light, replicate 2 | activity call |
| --- | --- | --- | --- | --- | --- | --- |
| asRNA:CR43463 + Pgant35A | 1 | 4.96e5 | 4.47e5 | 2.94e6 | 2.64e6 | inactive |
| asRNA:CR43463 + Pgant35A | 2 | 3.56e5 | 5.05e5 | 7.09e5 | 1.33e6 | inactive |
| CG4702 | 1 | 87012 | 81610 | 7.20e5 | 6.69e5 | inactive |
| CG1888 | 1 | 3.14e5 | 2.54e5 | 1.85e6 | 1.70e6 | inactive |
| Fur1 (Furin 1) | 1 | 60947 | 38040 | 1.07e5 | 1.14e5 | inactive |
| Fur1 (Furin 1) | 2 | 60029 | 76705 | 5.20e5 | 4.80e5 | inactive |
| Dtwd2 + Obp84a | 1 | 1.70e5 | 1.81e5 | 2.78e6 | 2.42e6 | inactive |
| Dtwd2 + Obp84a | 2 | 4.03e5 | 3.27e5 | 3.72e5 | 3.51e5 | inactive |
| Tpc1 | 1 | 1.36e5 | 1.42e5 | 1.88e6 | 2.24e6 | inactive |
| Tpc1 | 2 | 61141 | 1.07e5 | 5.30e5 | 7.64e5 | inactive |
| Tpc1 | 3 | 5.26e5 | 3.99e5 | 9.23e5 | 9.23e5 | inactive |
| raskol | 1 | 8.41e5 | 1.14e6 | 9.73e5 | 8.45e5 | inactive |
| raskol | 2 | 3.91e5 | 3.42e5 | 3.10e6 | 2.70e6 | inactive |
| raskol | 3 | 4.00e5 | 3.84e5 | 3.47e6 | 3.75e6 | inactive |
| raskol | 4 | 7.26e5 | 7.40e5 | 1.95e6 | 2.03e6 | inactive |
| Ilp6 (Insulin-like peptide 6) | 1 | 4.09e5 | 4.34e5 | 4.53e6 | 2.91e6 | inactive |
| Hsl (Hormone-sensitive lipase) | 1 | 1.04e6 | 4.17e5 | 1.94e6 | 8.57e5 | inactive |
| CG13678 | 1 | 4.42e5 | 3.96e5 | 3.56e6 | 4.09e6 | inactive |
| TM4SF (Transmembrane 4 superfamily) | 1 | 1.07e6 | 8.19e5 | 1.68e6 | 1.60e6 | inactive |
| CG13198 | 1 | 4.13e5 | 3.08e5 | 2.07e6 | 1.86e6 | inactive |
| Sod1 (Superoxide dismutase 1) | 1 | 2.93e5 | 2.70e5 | 3.40e6 | 2.73e6 | inactive |
| Cyp6a20 (Cytochrome P450 6a20) | 1 | 1.18e6 | 1.05e6 | 2.08e6 | 1.94e6 | inactive |
| GalT1 (beta1,3-galactosyltransferase 1) | 1 | 9.00e5 | 7.31e5 | 1.98e6 | 1.39e6 | inactive |
| CG34353 | 1 | 2.77e5 | 2.57e5 | 2.96e6 | 3.55e6 | inactive |
| CG34353 | 2 | 2.72e5 | 2.63e5 | 2.03e6 | 3.07e6 | inactive |
| CG34353 | 3 | 2.60e5 | 2.23e5 | 2.99e6 | 2.96e6 | inactive |
| CG34353 | 4 | 2.06e5 | 2.54e5 | 2.15e6 | 2.47e6 | inactive |
| CG34353 | 5 | 6.44e5 | 1.21e6 | 7.66e5 | 1.11e6 | inactive |
| CG34353 | 6 | 3.11e5 | 3.64e5 | 1.02e6 | 6.79e5 | inactive |
| CG34353 | 7 | 8.17e5 | 8.92e5 | 8.54e5 | 1.05e6 | inactive |
| BoYb | 1 | 59630 | 61599 | 4.52e5 | 4.12e5 | inactive |
| Dp (DP transcription factor) | 1 | 4.82e5 | 4.97e5 | 2.17e6 | 2.34e6 | active |
| Fhos (Formin homology 2 domain containing) | 1 | 1.18e5 | 2.06e5 | 2.03e5 | 2.71e5 | inactive |
| Fhos (Formin homology 2 domain containing) | 2 | 1.08e6 | 4.92e5 | 1.59e6 | 1.34e6 | inactive |
| Fhos (Formin homology 2 domain containing) | 3 | 7.35e5 | 1.01e6 | 1.54e6 | 2.82e6 | inactive |
| Fhos (Formin homology 2 domain containing) | 4 | 4.05e5 | 2.63e5 | 4.23e6 | 2.45e6 | inactive |
| Fhos (Formin homology 2 domain containing) | 5 | 5.70e5 | 4.84e5 | 1.44e6 | 1.45e6 | inactive |
| Wdr82 (WD repeat domain 82) | 1 | 3.78e5 | 3.27e5 | 3.79e6 | 2.75e6 | inactive |
| Wdr82 (WD repeat domain 82) | 2 | 5.80e5 | 6.54e5 | 2.55e6 | 3.22e6 | inactive |
| Dhrs4 (Dehydrogenase/reductase 4) | 1 | 8.61e5 | 9.33e5 | 7.63e5 | 1.09e6 | inactive |
| CG10958 | 1 | 1.18e5 | 74079 | 4.55e5 | 3.68e5 | inactive |
| CG10958 | 2 | 4.55e5 | 5.43e5 | 9.79e5 | 9.79e5 | inactive |
| CG10764 | 1 | 1.15e6 | 4.03e5 | 1.06e6 | 3.45e5 | inactive |
| CG14451 | 1 | 2.81e5 | 2.07e5 | 2.60e6 | 2.74e6 | inactive |
| CG14451 | 2 | 3.13e5 | 3.36e5 | 8.08e5 | 7.74e5 | inactive |
| CG17974 | 1 | 2.92e5 | 3.17e5 | 2.55e6 | 2.41e6 | inactive |
| se (sepia) | 1 | 1.46e5 | 1.12e5 | 1.80e6 | 1.10e6 | inactive |
| TwdlU (TweedleU) | 1 | 1.03e5 | 82115 | 2.13e6 | 2.21e6 | inactive |
| TwdlU (TweedleU) | 2 | 7.09e5 | 6.87e5 | 1.52e6 | 1.36e6 | inactive |
| GstO3 (Glutathione S transferase O3) | 1 | 1.17e5 | 1.15e5 | 1.57e6 | 1.20e6 | inactive |
| Muc11A (Mucin 11A) | 1 | 3.50e5 | 4.05e5 | 2.19e6 | 2.09e6 | inactive |
| Muc11A (Mucin 11A) | 2 | 5.98e5 | 5.78e5 | 1.11e6 | 1.11e6 | inactive |
| Arr2 (Arrestin 2) | 1 | 1.89e5 | 1.71e5 | 1.98e6 | 1.64e6 | inactive |
| CG6511 | 1 | 1.08e5 | 1.06e5 | 1.90e6 | 1.44e6 | inactive |
| Prosbeta1 (Proteasome beta1 subunit) | 1 | 5.49e5 | 1.67e5 | 6.44e5 | 3.80e5 | inactive |
| nmdyn-D6 | 1 | 6.08e5 | 4.87e5 | 3.21e6 | 2.92e6 | inactive |
| nmdyn-D6 | 2 | – | – | – | – | inactive |
| ND-24 (NADH dehydrogenase (ubiquinone) 24 kDa subunit) | 1 | 1.32e5 | 1.03e5 | 1.29e6 | 1.05e6 | inactive |

Called active (from the list above):
| Gene | reagent no. | firefly reporter light, replicate 1 | firefly reporter light, replicate 2 | Renilla control light, replicate 1 | Renilla control light, replicate 2 | activity call |
| --- | --- | --- | --- | --- | --- | --- |
| Dp (DP transcription factor) | 1 | 4.82e5 | 4.97e5 | 2.17e6 | 2.34e6 | active |
